{"source": "patent US20100150879A1", "key": {"[1]": {"molecular_target": "T1, p120-catenin (p120ctn), endogenous (human) (UniProt O60716)", "T1 sequence (looked up)": "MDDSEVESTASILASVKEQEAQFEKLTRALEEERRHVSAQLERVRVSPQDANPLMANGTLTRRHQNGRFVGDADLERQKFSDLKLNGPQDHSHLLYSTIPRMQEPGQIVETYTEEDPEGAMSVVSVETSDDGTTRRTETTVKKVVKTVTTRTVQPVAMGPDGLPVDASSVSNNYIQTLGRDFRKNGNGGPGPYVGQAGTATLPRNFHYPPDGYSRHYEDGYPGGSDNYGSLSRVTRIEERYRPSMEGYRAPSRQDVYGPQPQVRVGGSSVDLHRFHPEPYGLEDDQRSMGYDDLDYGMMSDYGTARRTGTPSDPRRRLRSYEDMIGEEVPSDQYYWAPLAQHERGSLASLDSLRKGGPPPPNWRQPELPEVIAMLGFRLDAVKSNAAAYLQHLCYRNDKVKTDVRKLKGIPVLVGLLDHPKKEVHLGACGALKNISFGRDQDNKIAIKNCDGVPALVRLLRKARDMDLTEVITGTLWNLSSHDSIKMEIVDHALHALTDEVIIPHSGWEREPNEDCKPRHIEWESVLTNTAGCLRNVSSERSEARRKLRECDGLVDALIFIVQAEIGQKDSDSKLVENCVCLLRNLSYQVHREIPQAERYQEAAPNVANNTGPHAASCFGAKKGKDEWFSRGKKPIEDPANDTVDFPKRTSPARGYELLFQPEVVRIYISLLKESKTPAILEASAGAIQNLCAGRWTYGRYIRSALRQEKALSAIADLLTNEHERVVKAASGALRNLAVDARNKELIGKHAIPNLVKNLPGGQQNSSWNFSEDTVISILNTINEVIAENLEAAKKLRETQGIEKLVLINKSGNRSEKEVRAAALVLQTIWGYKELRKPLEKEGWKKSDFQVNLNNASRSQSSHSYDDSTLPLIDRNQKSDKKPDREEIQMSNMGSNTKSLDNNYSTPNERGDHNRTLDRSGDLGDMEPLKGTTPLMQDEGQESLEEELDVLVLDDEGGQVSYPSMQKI", "assay": "GST pull-down"}, "[2]": {"molecular_target": "T1, p120-catenin (p120ctn), endogenous (human)", "assay": "far western, GST fusion protein as bait (2.0 µg/ml) on blotted immunoprecipitates from hdMVEC"}}, "note": "These are yes or no findings as the source states them, for the method shown. Some results given as binding are weak or reduced against the parent protein; the word gives no strength. Tags and fused reporters may be left off the sequences shown."}
{"binder": "SDLFKTKMTLSLPAPAIRKEILSPVDIIDRNNHHNMM (peptide, not shown: a dimerising Fc or GST)", "note": "[GST-LPP3-C-cyto fusion protein (GST fused to the C-terminal cytoplasmic domain of LPP3)]", "values": [{"measurement": "binding", "setting": "[1]", "value": "binds"}, {"measurement": "binding", "setting": "[2]", "value": "binds"}]}
